Test results as given in publication PMC5458555, “Conformational dynamics of dynamin-like MxA revealed by single-molecule FRET” (Nature Communications, 2017).
Results are given in words; binding and its absence hold for the method and conditions named.

Tests used:
[1] = target: MxA^MO1 (monomeric human MxA construct for crystallization) (human) (UniProt P20591); assay: crystal structure; nucleotide-free crystal structure of MxA^MO1 at 2.9 Å; packing inside the crystal; both purified
[2] = target: MxA^MO1 (monomeric human MxA construct for crystallization) (human) (UniProt P20591); assay: SEC-MALS; Superdex200 10/300 SEC with in-line right-angle light-scattering/refractive index detector; 100 μM MxA^MO1; 20 mM HEPES (pH 7.3), 150 mM NaCl, 4 mM MgCl2, 1 mM DTT; no nucleotide; both purified

- binding [1]: no binding
- binding [2]: no binding (tested: 100 μM)
B1: MxA^MO1 (monomeric human MxA construct for crystallization) (protein, UniProt P20591)
chain: PGSVAENNLCSQYEEKVRPCIDLIDSLRALGVEQDLALPAIAVIGDQSSGKSSVLEALSGVALPRGSGIVTRCPLVLKLKKLVNEDKWRGKVSYQDYEIEISDASEVEKEINKAQNAIAGEGMGISHELITLEISSRDVPDLTLIDLPGITRVAVGNQPADIGYKIKTLIKKYIQRQETISLVVVPSNVDIATTEALSMAQEVDPEGDRTIGILTKPDLVDKGTEDKVVDVVRNLVFHLKKGYMIVKCRGQQEIQDQLSLSEALQREKIFFENHPYFRDLLEEGKATVPCLAEKLTSELITHICKSLPLLENQIKETHQRITEELQKYGVDIPEDENEKMFFLSDKVNAFNQDITALMQGEETVGEEDIRLFTRLRHEFHKWSTIIENNFQEGHKILSRKIQKFENQYRGRELPGFVNYRTFETIVKQQIKALEEPAVDMLHTVTDMVRLAFTDVSIKNFEEFFNLHRTAKSKIEDIRAEQEREGEKLIRLHFQDEQIVYGAFQSSSATDSSMEEIFQHLMAYHQEASKRISSHIPLIIQFFMLQTYGQQLQSAMSQLSQDKDTYSWLLKERSDTSDKRKFLKERLARLTQARRRLAQFPG
